# Experimental data reported in the supplement of paper PMC6411743.
# ± gives the standard deviation of the averaged measurements. The list shows a part of the results.
# Target: T1, H0YN33 and related entries (UniProt Q9BW66)
# T1 sequence (whole entry): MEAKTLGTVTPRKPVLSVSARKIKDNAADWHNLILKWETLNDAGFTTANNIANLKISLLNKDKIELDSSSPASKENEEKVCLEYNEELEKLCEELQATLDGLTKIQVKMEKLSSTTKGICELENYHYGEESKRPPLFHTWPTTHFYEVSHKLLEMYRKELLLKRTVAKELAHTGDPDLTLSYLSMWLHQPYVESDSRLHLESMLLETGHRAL
# Experiment: NP40-soluble protein abundance relative to vehicle (solubility fold change) (ratio); higher = more soluble protein in presence of GTP
# Procedure: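 Solubility proteome profiling in Jurkat crude lysate. Lysate was treated with Mg-GTP (0.1-10 mM) for 10 min at room temperature and 3 min at 37 °C, then solubilised with 0.8% NP40 and benzonase, followed by ultracentrifugation. Proteins were quantified by TMT10 LC-MS/MS; the value is the NP40-soluble abundance relative to the NP40-processed vehicle, from 3 independent experiments.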
compound,measurement,setting,value
Nc1nc2c(ncn2[C@@H]2O[C@H](COP(=O)(O)OP(=O)(O)OP(=O)(O)O)[C@@H](O)[C@H]2O)c(=O)[nH]1 [guanosine triphosphate],NP40-soluble protein abundance,concentration: 0.1mM,1.37 ± 0.14
same,NP40-soluble protein abundance,concentration: 0.5mM,1.12 ± 0.022
same,NP40-soluble protein abundance,concentration: 1mM,1.33 ± 0.17
same,NP40-soluble protein abundance,concentration: 2mM,1.6 ± 0.11
same,NP40-soluble protein abundance,concentration: 4mM,1.61 ± 0.078
same,NP40-soluble protein abundance,concentration: 6mM,1.63 ± 0.11
same,NP40-soluble protein abundance,concentration: 8mM,1.69 ± 0.25
same,NP40-soluble protein abundance,concentration: 10mM,1.73 ± 0.26
